Among the data in paper PMC6190850, “The RNA-Recognition Motifs of TAR DNA-Binding Protein 43 May Play a Role in the Aberrant Self-Assembly of the Protein” are Kd values, retold here.

Protein sequences, listed by entry. Tags and fused reporters are not part of them. Residues count along the entry.
UniProt Q13148, 192-269: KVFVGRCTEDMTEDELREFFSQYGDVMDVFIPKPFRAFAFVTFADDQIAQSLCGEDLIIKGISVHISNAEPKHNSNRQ

What is called Kd is the constant that tells how readily two partners part at equilibrium.

For this data set, the target named is TDP-43 RRM2 (UniProt Q13148). Put plainly: BLI. Conditions: BLI (Octet RED), 10 mM potassium phosphate pH 7.2, 150 mM KCl, 0.05% Tween, 25 C; RNA on streptavidin sensors, protein 1 nM-15 uM; recombinant protein; protein details: 6xHis-SUMO removed by TEV. (In general: BLI is a label-free optical method that tracks binding on a fibre tip over time.)

For at least one entry, the source does not settle the construct or the ends of the probe.

Regarding GUGUGAAUGAAU [AUG12], the Kd was over 30 µM.
